Assay results: US10881060B2, “Endophytes and related methods” (Agriculture Victoria Services PTY LTD, priority 2010, dated 2021)
No dose or concentration is given here for some results.

Tested on: tall fescue
Assay: Metabolic profiling of tall fescue-endophyte associations in the endogenous host (LCMS alkaloid profile)
Format: in vivo, Lolium arundinaceum
Design: key to Alkaloid profile Peramine / Alkaloid profile Lolines / Alkaloid profile Lolitrem B: +Alkaloid present; − Alkaloid absent; key to Alkaloid profile Ergovaline: +^L: ^L= Low; +^M: ^M= Medium; +^H: ^H= High
Conditions: Table 15, pseudostem

| Molecule | Alkaloid profile Peramine (qualitative) | Alkaloid profile Lolines (qualitative) | Alkaloid profile Lolitrem B (qualitative) | Alkaloid profile Ergovaline (relative quantitation of ergovaline levels) |
| --- | --- | --- | --- | --- |
| 11,12-epoxy janthitrem G [compound 4] | + |  |  |  |
| Cn1c(CCCN=C(N)N)cn2cccc2c1=O [compound 1, peramine] |  | + | − | +^M |
